Laboratory results reported in PubChem BioAssay AID445 (National Center for Advancing Translational Sciences (NCATS), 2006).
This is one part of the list. The main result of the screen is listed elsewhere. These columns were measured beside it and carry no call. The list favours compounds with an active or inconclusive main result. The note in brackets gives the kind of curve behind each potency; many fits are weak.

assay: IkB Signaling; details: ABC-DLBCL IkBa-CBG/CBR dual luciferase ratio (green luciferase fused to IkBa over red control in OCI-Ly3 lymphoma cells), 4 h; measured here: control luc red channel unless noted
Method in brief: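 Luminescence ratio of IκBα-fused green versus native red beetle luciferase in OCI-Ly3 cells, 4 h post-doxycycline with compound; red signal alone, scaled from basal (0%) to zero light (-100%), flagged nonspecific or cytotoxic effects.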

Row | SMILES | AC50
1 | Cc1cccc(N2C(=O)CC(c3ccc(F)cc3)C3=C2COC3=O)c1 (centres undefined) | 39.8 µM [falling, single point]
2 | CCOc1ccccc1N1CCN(Cc2cccc(OC)c2O)CC1 | 12.6 µM [falling, partial curve]
3 | CCCCCCn1nnc2sc(-c3ccccc3)cc2c1=O | 39.8 µM [falling, single point]
4 | CCC1CN(C(=O)Nc2ccccc2F)c2cc(C)ccc2O1 (centres undefined) | 31.6 µM [falling, partial curve]
5 | COc1cc(C)ccc1OCCSc1nc2ccc(NC(=O)c3ccco3)cc2s1 | 7.94 µM [falling, partial curve]
6 | COc1ccc(OC)c(NC(=O)CSc2nc(=O)n(CCN(C)C)c3c2CCC3)c1 | 20 µM [falling, partial curve]
7 | Cc1cc(-c2cc(N)n(-c3ccccc3)n2)c(C)n1C1CCCC1 | 0.0398 µM [falling, full curve]
8 | COc1cc(NC(=O)CC2C(=O)N(c3ccccc3)C(=O)N2Cc2ccc(F)cc2)cc(OC)c1 (centres undefined) | 31.6 µM [falling, single point]
9 | CCCOc1ccc(C2C(=O)N(C3CCCCCC3)CC(=O)N2Cc2ccccc2OC)cc1OC (centres undefined) | 31.6 µM [falling, partial curve]
10 | CCCCCn1c(CCNC(=O)c2cccs2)nc2ccccc21 | 25.1 µM [falling, partial curve]
11 | CC1CCc2c(sc(NC(=O)Cc3ccccc3)c2C(=O)Nc2ccc(Cl)cc2)C1 (centres undefined) | 0.501 µM [falling, full curve, poor fit]
12 | Cc1ccc(-c2nn3c(-c4ccccc4C)nnc3c3ccccc23)cc1 | 0.794 µM [rising, full curve]
13 | CC(C)c1nnc(NC(=O)c2c(O)c3cccc4c3n(c2=O)CCC4)s1 | 0.1 µM [falling, full curve]
14 | CCOC(=O)c1ccc(CC(=O)c2oc3cc(O)ccc3c2C)o1 | 31.6 µM [falling, single point]
15 | O=C(CCNS(=O)(=O)c1ccc2c(c1)CCCC(=O)N2)Nc1cccc(Cl)c1 | 0.0158 µM [falling, full curve, poor fit]
16 | Cc1cc(NC(=O)CCc2nc3cccnc3n2-c2ccccc2)ccc1Br | 15.8 µM [falling, partial curve]
17 | O=C(Cn1nnc(-c2ccncc2)n1)N(C1CCCCC1)C1CCCCC1 | 15.8 µM [falling, partial curve]
18 | Cc1ccccc1NC(=O)Cn1cc(C(=O)c2ccco2)c2ccccc21 | 31.6 µM [falling, partial curve]
19 | Cc1ccccc1Cn1ccc(NC(=O)CCSc2nc(-c3ccco3)cc(C(F)(F)F)n2)n1 | 10 µM [falling, partial curve]
20 | CCc1ccc2nc(N(Cc3cccnc3)C(=O)c3ccc(C#N)cc3)sc2c1 | 0.0251 µM [rising, full curve, poor fit]
21 | CCOC(=O)CSc1nc2ccccc2c(=O)n1NC(=O)c1ccccc1 | 12.6 µM [falling, partial curve]
22 | Cn1nccc1C(=O)OCC(=O)Nc1nc(-c2ccccc2)cs1 | 0.0631 µM [falling, full curve]

Rewritten comma-delimited: two of the compounds above.
Row,SMILES,AC50
13,CC(C)c1nnc(NC(=O)c2c(O)c3cccc4c3n(c2=O)CCC4)s1,"0.1 µM [falling, full curve]"
14,CCOC(=O)c1ccc(CC(=O)c2oc3cc(O)ccc3c2C)o1,"31.6 µM [falling, single point]"

(further entries)

Row | SMILES | AC50
23 | CCCCC(=O)Nc1ccc2nc(SCC(=O)N3CCc4ccccc43)sc2c1 | 7.94 µM [falling, full curve]
24 | CN1C(=O)CSc2ccc(NC(=O)NCCC3=CCCCC3)cc21 | 39.8 µM [falling, single point]
25 | CCOc1ccc(-n2cc(-c3ccccc3)c3c(NCCc4ccccc4)ncnc32)cc1 | 1 µM [rising, partial curve]
26 | Cc1ccc(Nc2ccc3cc(S(=O)(=O)N4CCC(C)CC4)ccc3n2)c(Cl)c1 | 3.16 µM [rising, full curve]
27 | O=C(CCc1ccccc1)Nc1ccc(Cl)cn1 | 12.6 µM [falling, partial curve]
28 | CCOC(=O)N1CCc2c(sc3c2c(=O)n(Cc2ccccc2)c(=O)n3CC(=O)Nc2cccc(CC)c2)C1 | 6.31 µM [falling, partial curve]
29 | Cc1noc(-c2ccc(-c3noc(-c4ccc(F)cc4)n3)cc2)n1 | 2.51 µM [rising, partial curve]
30 | O=C(CCCn1c2ccccc2c(=O)c2ccccc21)Nc1cccc(Cl)c1 | 10 µM [falling, partial curve]
31 | COc1cccc(CNC(=O)c2cc3c(-c4ccccc4F)nn(C)c3s2)c1 | 3.98 µM [falling, full curve]
32 | O=C(NCCc1ccc(Cl)cc1)c1c2c(nc3ccccc13)C(=O)N(C1CCCCC1)C2 | 20 µM [falling, single point]
33 | O=S(=O)(c1ccc(Br)s1)N1CCN(c2cccc(C(F)(F)F)c2)CC1 | 6.31 µM [falling, partial curve]
34 | COCCn1c(SCC(=O)Nc2cc(Cl)ccc2OC)nc2c([nH]c3ccccc32)c1=O | 0.01 µM [rising, full curve, poor fit]
35 | COc1ccc(CCNC(=O)CCSc2nc(-c3ccco3)cc(C(F)(F)F)n2)cc1OC | 25.1 µM [falling, partial curve]
36 | COc1cccc(NC(=O)NC2(C(F)(F)F)Oc3ccccc3O2)c1 | 12.6 µM [falling, partial curve]
37 | COc1ccc(CC(=O)Nc2c(C(=O)N3CCN(c4ccccc4)CC3)oc3ccccc23)cc1OC | 15.8 µM [falling, partial curve]
38 | COc1cc(C(CC(=O)Nc2ccc(C)c(F)c2)N2Cc3ccccc3C2=O)cc(OC)c1OC (centres undefined) | 0.0631 µM [rising, full curve, poor fit]
39 | CCN(CC)c1ncnc2c1cnn2-c1cc(Cl)ccc1C | 25.1 µM [falling, single point]
40 | O=C1OCC2=C1C(c1cccc(Cl)c1)CC(=O)N2c1ccc(C(F)(F)F)cc1 (centres undefined) | 12.6 µM [falling, single point]
41 | CCOc1ccccc1NC(=O)C1CCN(S(=O)(=O)c2c(C)noc2/C=C/c2ccco2)CC1 | 25.1 µM [rising, partial curve, poor fit]
42 | COc1cc(OC)cc(-c2cc3nc(C)c(CCC(=O)NCCc4cccc(C)c4)c(C)n3n2)c1 | 15.8 µM [falling, single point]
43 | COc1cc(NC(=O)Cn2nc(C(F)(F)F)c3c2CCC3)cc(OC)c1OC | 10 µM [falling, partial curve]
44 | COc1ccc(OC)c(CNC(=O)c2ccc(N3Cc4ccccc4Oc4ncccc43)s2)c1 | 1.58 µM [falling, full curve]

Row | SMILES | AC50
45 | COc1cccc(-c2nnc(SCc3ccc(C#N)cc3)n2Cc2ccco2)c1 | 12.6 µM [falling, partial curve]
46 | COc1ccccc1OCc1ccc(C(=O)Nc2ccncc2)o1 | 10 µM [falling, partial curve]
47 | COc1ccc2[nH]c3c(c2c1)CCN(C(=O)CCC1CCCC1)C3c1ccc(F)cc1 (centres undefined) | 25.1 µM [falling, single point]
48 | Cc1cccc(Cn2c(-c3ccccc3)nc3ccccc32)c1 | 20 µM [falling, single point]
49 | O=C(CSc1nccn1-c1ccc(F)cc1)Nc1nc2ccccc2s1 | 20 µM [falling, partial curve]
50 | O=C(CC1N=C2c3ccccc3N=C(SCc3ccc(F)cc3)N2C1=O)NCCc1ccccc1 (centres undefined) | 7.94 µM [falling, single point]
51 | c1ccc(CNc2ccc3ccccc3n2)nc1 | 20 µM [falling, partial curve]
52 | CC(C)(C)OC(=O)N1CCC(c2c(C(=O)N3CCN(c4ccccn4)CC3)cnn2-c2ccc(F)cc2F)CC1 | 12.6 µM [falling, partial curve]
53 | CCn1c(=O)c2cc(C(=O)NCc3cc(OC)ccc3OC)sc2c2ccccc21 | 7.94 µM [falling, full curve]
54 | COc1ccc(NC(=O)C2CCCN(S(=O)(=O)c3c(C)[nH]c(=O)[nH]c3=O)C2)cc1OC (centres undefined) | 0.251 µM [rising, full curve, poor fit]
55 | Cc1cc(C)nc(N2CCCC(C(=O)Nc3ccc4nc(C)c(C)nc4c3)C2)n1 (centres undefined) | 12.6 µM [falling, partial curve]
56 | COc1ccc(NC(=O)c2oc3ccccc3c2NC(=O)c2cc(=O)c3cc(Cl)ccc3o2)cc1 | 2.51 µM [rising, partial curve]
57 | COC(=O)c1c(NC(=O)c2ccc(OC)cc2OC)sc2c1CCCCC2 | 39.8 µM [falling, single point]
58 | O=c1oc(-c2cccnc2)nc2ccccc12 | 15.8 µM [falling, partial curve]
59 | Cc1cccc(C(=O)Nc2cc3c(cc2C)n(C)c(=O)n3C)c1 | 20 µM [rising, partial curve]
60 | O=C(Nc1sc2c(c1C(=O)NCc1ccco1)CCCC2)c1cc(=O)c2cc(Cl)ccc2o1 | 10 µM [falling, partial curve]
61 | O=C(CCCCn1c(=O)c2ccccc2n(Cc2cccc(F)c2)c1=O)NCCc1ccccc1 | 0.126 µM [rising, full curve, poor fit]
62 | CC(=O)N1CCc2c(sc3c2c(=O)n(-c2ccccc2)c(=O)n3CC(=O)c2ccccc2)C1 | 5.01 µM [rising, single point]
63 | Clc1ccccc1CNCC1CCC(CNCc2ccccc2Cl)CC1 (centres undefined) | 39.8 µM [falling, single point]
64 | CC(=O)Nc1ccc(NC(=O)c2ccc3c(c2)N(Cc2cccc(Cl)c2)C(=O)c2ccccc2S3=O)cc1 (centres undefined) | 6.31 µM [falling, partial curve]
